## Primary screen of a compound library

Chains of the proteins cited; added tags and fusions are not shown.
UniProt I6X8D2, whole entry: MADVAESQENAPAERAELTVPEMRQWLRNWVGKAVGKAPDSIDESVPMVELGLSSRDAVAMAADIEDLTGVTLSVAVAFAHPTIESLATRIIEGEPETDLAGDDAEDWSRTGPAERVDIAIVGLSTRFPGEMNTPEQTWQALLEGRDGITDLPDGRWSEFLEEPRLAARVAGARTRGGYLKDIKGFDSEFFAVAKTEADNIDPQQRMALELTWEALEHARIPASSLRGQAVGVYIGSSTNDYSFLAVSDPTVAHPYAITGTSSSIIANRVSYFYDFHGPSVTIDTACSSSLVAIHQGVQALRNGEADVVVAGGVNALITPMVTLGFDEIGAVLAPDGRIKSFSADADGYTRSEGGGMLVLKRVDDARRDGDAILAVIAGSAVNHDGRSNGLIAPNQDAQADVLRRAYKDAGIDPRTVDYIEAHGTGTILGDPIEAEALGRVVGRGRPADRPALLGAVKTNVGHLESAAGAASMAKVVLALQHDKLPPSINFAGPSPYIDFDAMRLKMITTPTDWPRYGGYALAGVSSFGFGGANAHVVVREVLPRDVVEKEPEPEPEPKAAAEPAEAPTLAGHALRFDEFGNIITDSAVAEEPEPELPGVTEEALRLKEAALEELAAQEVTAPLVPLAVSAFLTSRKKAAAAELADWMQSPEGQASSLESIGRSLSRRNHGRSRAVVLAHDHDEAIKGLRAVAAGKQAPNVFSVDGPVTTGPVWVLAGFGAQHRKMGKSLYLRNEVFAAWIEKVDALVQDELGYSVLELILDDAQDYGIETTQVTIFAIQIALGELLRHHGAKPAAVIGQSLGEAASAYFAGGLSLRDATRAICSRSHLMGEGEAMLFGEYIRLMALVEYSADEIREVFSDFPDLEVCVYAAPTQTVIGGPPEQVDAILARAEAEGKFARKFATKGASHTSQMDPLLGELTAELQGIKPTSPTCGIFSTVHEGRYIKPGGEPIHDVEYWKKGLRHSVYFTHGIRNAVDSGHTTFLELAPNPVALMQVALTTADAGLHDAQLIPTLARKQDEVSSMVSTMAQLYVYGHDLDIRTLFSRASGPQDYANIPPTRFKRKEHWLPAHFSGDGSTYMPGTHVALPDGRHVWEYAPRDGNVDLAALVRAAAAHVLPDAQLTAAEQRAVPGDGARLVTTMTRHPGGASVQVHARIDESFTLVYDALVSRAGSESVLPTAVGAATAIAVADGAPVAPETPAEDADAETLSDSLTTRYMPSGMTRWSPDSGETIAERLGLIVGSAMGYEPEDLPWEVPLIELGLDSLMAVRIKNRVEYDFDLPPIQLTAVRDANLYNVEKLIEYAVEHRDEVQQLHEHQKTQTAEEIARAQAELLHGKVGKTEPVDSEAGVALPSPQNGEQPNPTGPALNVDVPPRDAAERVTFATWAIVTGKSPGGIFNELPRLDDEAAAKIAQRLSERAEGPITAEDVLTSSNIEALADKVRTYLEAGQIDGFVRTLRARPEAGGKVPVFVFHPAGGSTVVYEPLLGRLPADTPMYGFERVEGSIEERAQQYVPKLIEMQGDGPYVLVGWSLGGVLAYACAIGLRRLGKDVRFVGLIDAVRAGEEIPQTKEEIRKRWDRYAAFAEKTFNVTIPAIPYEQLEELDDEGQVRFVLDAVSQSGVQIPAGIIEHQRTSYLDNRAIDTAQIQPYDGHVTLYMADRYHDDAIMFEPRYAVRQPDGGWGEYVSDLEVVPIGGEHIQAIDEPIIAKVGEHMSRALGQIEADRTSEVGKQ

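Enzyme assay of the thioesterase domain of polyketide synthase 13; the read-out is not stated. Target: Polyketide synthase Pks13, Mycobacterium tuberculosis (UniProt I6X8D2). Tested at 30 µM. Higher reads as stronger inhibition (inferred from which compounds were picked for retests). About 67,000 compounds were tested under these conditions; 0.46% (about 300) showed 50% or more at least once.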

Values are the deposited “Percent Effect”, in %. How 0% and 100% were set is not recorded. Most values in the screen are low, and negative values occur. Compounds were drawn at random from those tested, without regard to their results.

| SMILES | percent effect |
|---|---|
| `CCN(CC)S(=O)(=O)N(C)Cc1ccncc1` | -3.198% |
| `Cc1nc(CN2CCCC(NCc3cnn(C)c3)C2)no1` (stereo unspecified) | -15.86% |
| `Cc1cccc(C(=O)N2CCn3c(CN4CCN(C)CC4)cnc3C2)n1` | -25.96% |
| `CS(=O)(=O)N1CCC(N2CCCC2c2ccccn2)CC1` (stereo unspecified) | -33.99% |
| `Fc1ccc(Sc2ccccc2CNC2=NCCN2)cc1` | -6.26% |
| `Cc1nc(CN2CC[C@H]3[C@H]2CCN3c2ncccn2)cs1` | -14.81% |
| `Cn1cnnc1C1CCCN(C(=O)NCCCn2cccn2)C1` (stereo unspecified) | -13.42% |
| `COc1ccccc1CN1CC(O)CN(S(=O)(=O)C(C)C)CC1=O` (stereo unspecified) | -10.05% |
| `Cc1ncc(S(=O)(=O)Nc2ccnn2C2CCCCC2)[nH]1` | -21.01% |
| `Cc1csc(C2CCCN(C(=O)c3cnc[nH]3)C2)n1` (stereo unspecified) | -5.374% |
| `CC(=O)N1CCC2(CC1)COCCN2Cc1ccc(F)cc1` | -18.84% |
| `COCCNC(=O)Cn1c(-c2ccco2)cc2cccnc21` | 42.11% |
| `O=c1oc(-c2cccs2)nn1CC(O)c1ccc2c(c1)CCC2` (stereo unspecified) | -8.99% |
| `CCCc1noc(C2CCN(S(=O)(=O)c3cccs3)CC2)n1` | -10.53% |
| `Cc1cc(C(=O)N2C[C@@H]3OCCN(CCN4CCCC4)[C@@H]3C2)c(C)o1` | -5.691% |
| `Cn1cc(-c2noc(C3(C)CCOCC3)n2)cn1` | 3.287% |
| `Cc1nc(CN2CC[C@H]3C[C@H](c4ccncn4)O[C@@H]3C2)cs1` | -34.01% |
| `CCOCCOC(C)C(=O)Nc1ccc2c(ccn2CC)c1` (stereo unspecified) | -2.785% |
| `Cc1ncc(-c2ccncc2)c(C2CCN(C(=O)c3ccno3)CC2)n1` | 9.475% |
| `CC1(NC(=O)CNC(=O)C(C)(C)C)CCc2ccccc2C1` (stereo unspecified) | -27.05% |
| `CN(Cc1ccco1)Cc1ccccc1CNC(=O)c1ccncc1` | -17.59% |
| `Cc1ncc(CN2CCCC(c3cc(C(F)(F)F)[nH]n3)C2)s1` (stereo unspecified) | -7.523% |
| `Cc1nccn1CCCN1CCCC(c2ccccc2)C1` (stereo unspecified) | -10.17% |
| `COCCCC1(CO)CCCN(CCc2ccccn2)C1` (stereo unspecified) | -1.717% |
| `CCn1c(CC2CCN(C(=O)C3CNCCO3)CC2)nn(C)c1=O` (stereo unspecified) | -8.092% |
| `Cc1ncc(CN(C)C2CCCN(Cc3noc(C4CC4)n3)C2)s1` (stereo unspecified) | -7.376% |
| `CC(C)CN1CCN(C(=O)CCn2cccn2)CC1` | -23.04% |
| `Cc1ncsc1-c1nnc(C2CCN(CC3CCCCC3)CC2)o1` | -15.94% |
| `COc1ccc(C(N)=O)cc1NCc1ncc(-c2cccs2)o1` | 16.83% |
| `CN(C)C(=O)N1CCc2c(CNc3ncccn3)cncc2C1` | 0.7179% |
| `COCCN1CCCC2(CCN(C(=O)c3cnc(O)cn3)C2)C1=O` (stereo unspecified) | 8.911% |
| `CN(CCC#N)C(=O)CCOc1cccc(F)c1` | -27.84% |
| `CCNc1ccnc(NCC2(N(C)C)CCOCC2)n1` | -15.83% |
| `c1cnnc(N2CCCC2CNCc2nc(-c3cccs3)no2)c1` (stereo unspecified) | 0.8898% |
| `CC1(NC(=O)Cc2csc(-c3cccc(Cl)c3)n2)CCS(=O)(=O)C1` (stereo unspecified) | 3.335% |
| `Cc1ccccc1C(=O)N1C[C@@H]2COC[C@]2(COCc2cccnc2)C1` | -1.87% |
| `O=C(CN1CSCC1=O)NCC1CCN(c2ccccc2)C1` (stereo unspecified) | -29.1% |
| `CNS(=O)(=O)c1cccc(CNc2ccc(C(F)(F)F)nn2)c1` | -5.661% |
| `CN(C)S(=O)(=O)N1CCC(c2c(C(N)=O)sc3ccccc23)C1` (stereo unspecified) | -25.92% |
| `Cc1nc(C(=O)N2CCCC2c2cncc(CN3CCCC3)n2)co1` (stereo unspecified) | -13.99% |
| `CN(C)S(=O)(=O)N1C[C@H]2C[C@H](C(=O)Nc3ccccc3)[C@@H](C1)O2` | -6.258% |
| `COc1ccc(OC)c(C2C3=C(COC3=O)Nc3[nH]nc(C)c32)c1` (stereo unspecified) | -17.42% |
| `CCCC(C#N)NC(=O)c1sccc1CC` (stereo unspecified) | -1.146% |
| `O=C(O)c1cc(NS(=O)(=O)c2ccc(Cl)s2)ccc1N1CCOCC1` | -31.62% |
| `CCc1ncnc(N2CCOCC2CCO)c1F` (stereo unspecified) | -8.594% |
| `N#Cc1ccc(CS(=O)(=O)NC(=O)c2ccc3c(c2)COC3)cc1` | -24.36% |
| `Cc1cccc(NC(=O)N2CC(C(=O)NC(C)C)C3(CCOCC3)C2)c1` (stereo unspecified) | -15.6% |
| `Cc1ccc2cc(CN(C)Cc3nccs3)c(=O)[nH]c2c1` | -61.4% |
| `Cc1n[nH]c(C2CN(CC(=O)NCCc3ccc(F)cc3)CCO2)n1` (stereo unspecified) | -8.139% |
| `CC(C)Cc1nc(CSC2CCCN(c3cnn(C)c3)C2=O)no1` (stereo unspecified) | 4.618% |
| `Cc1ccc(CN2CCO[C@@H]3[C@@H](OCc4cccnc4)CC[C@@H]32)o1` | -3.6% |
| `Cn1nc2c(cc1=O)CN(Cc1nc(-c3ccsc3)no1)CC2` | 13.98% |
| `NC(=O)CN1CC2(CCC1=O)CCN(Cc1cc(F)cc(F)c1)CC2` | -36.77% |
| `N#Cc1ccc(CN2CCOCC2)cc1` | -0.7525% |
| `COC(=O)NCC(=O)NCc1nn(-c2ccccc2)c2c1CCC2` | -28.4% |
| `Cc1cnc(CN(C)C2CCN(Cc3ccc(Cl)s3)C2)o1` (stereo unspecified) | -8.953% |
| `COc1cccc(COCC(=O)N2CCCC(N3CCCC3)CC2)c1` (stereo unspecified) | -7.383% |
| `CO[C@@H]1CCN(Cc2ccoc2)C[C@@H]1Cc1ccccc1` | 6.149% |
| `O=C(CC1CCc2ccccc21)N1CCC(O)(Cn2ccnc2)CC1` (stereo unspecified) | -22.85% |
| `O=C(c1ccco1)N1CC[C@H]2C[C@@H](c3nccs3)O[C@@H]2C1` | 9.574% |

Once more, the final 4:

{"smiles": "COc1cccc(COCC(=O)N2CCCC(N3CCCC3)CC2)c1", "stereo": "stereo unspecified", "percent effect": -7.383}
{"smiles": "CO[C@@H]1CCN(Cc2ccoc2)C[C@@H]1Cc1ccccc1", "percent effect": 6.149}
{"smiles": "O=C(CC1CCc2ccccc21)N1CCC(O)(Cn2ccnc2)CC1", "stereo": "stereo unspecified", "percent effect": -22.85}
{"smiles": "O=C(c1ccco1)N1CC[C@H]2C[C@@H](c3nccs3)O[C@@H]2C1", "percent effect": 9.574}

Source: ChEMBL document CHEMBL3988442, “University of Dundee, Small-Polar-MMV Screening Library” (2021).